Experimental data published in PMC10570296.

Protein sequences, listed by entry. Tags and fused reporters are not part of them.
UniProt O75151: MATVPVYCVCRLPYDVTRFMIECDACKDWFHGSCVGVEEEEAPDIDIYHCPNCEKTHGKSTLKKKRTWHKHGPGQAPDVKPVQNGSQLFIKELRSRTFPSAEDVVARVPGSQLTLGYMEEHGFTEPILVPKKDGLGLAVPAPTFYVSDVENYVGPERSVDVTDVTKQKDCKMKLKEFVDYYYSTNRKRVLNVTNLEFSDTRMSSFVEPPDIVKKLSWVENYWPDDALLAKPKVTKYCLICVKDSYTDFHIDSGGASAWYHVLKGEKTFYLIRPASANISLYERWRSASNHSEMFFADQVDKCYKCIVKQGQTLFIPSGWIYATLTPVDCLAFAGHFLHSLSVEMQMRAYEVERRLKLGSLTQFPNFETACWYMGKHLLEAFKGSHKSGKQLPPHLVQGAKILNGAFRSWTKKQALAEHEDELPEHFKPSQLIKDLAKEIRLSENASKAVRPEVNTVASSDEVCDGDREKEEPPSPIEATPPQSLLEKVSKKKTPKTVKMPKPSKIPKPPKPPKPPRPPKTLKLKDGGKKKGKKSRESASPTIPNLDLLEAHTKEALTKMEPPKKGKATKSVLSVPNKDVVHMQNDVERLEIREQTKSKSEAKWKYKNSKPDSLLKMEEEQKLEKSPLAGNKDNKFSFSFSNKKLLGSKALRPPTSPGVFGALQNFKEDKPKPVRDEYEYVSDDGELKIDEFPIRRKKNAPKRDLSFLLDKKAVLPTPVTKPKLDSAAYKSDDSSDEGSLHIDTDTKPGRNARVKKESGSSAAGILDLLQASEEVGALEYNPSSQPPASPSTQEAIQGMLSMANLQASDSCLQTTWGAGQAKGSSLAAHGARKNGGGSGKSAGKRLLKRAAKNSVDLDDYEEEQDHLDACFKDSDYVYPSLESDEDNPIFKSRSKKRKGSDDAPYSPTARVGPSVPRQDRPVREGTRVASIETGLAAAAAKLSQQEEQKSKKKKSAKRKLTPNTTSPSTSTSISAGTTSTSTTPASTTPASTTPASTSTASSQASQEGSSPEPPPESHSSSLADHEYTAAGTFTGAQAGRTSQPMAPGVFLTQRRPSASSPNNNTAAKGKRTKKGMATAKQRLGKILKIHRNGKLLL

Molecular target: Flag/SBP-PHF2 (human) (UniProt O75151)
Assay: affinity purification with mass spectrometry; HepG2 cells transfected with Flag/SBP-PHF2; proteins purified with Flag or streptavidin affinity beads, in-gel digestion, LC-MS

B1: endogenous SREBP1c (sterol regulatory element-binding protein 1c) (protein, UniProt P36956-3 1-1047)
chain: MDCTFEDMLQLINNQDSDFPGLFDPPYAGSGAGGTDPASPDTSSPGSLSPPPATLSSSLEAFLSGPQAAPSPLSPPQPAPTPLKMYPSMPAFSPGPGIKEESVPLSILQTPTPQPLPGALLPQSFPAPAPPQFSSTPVLGYPSPPGGFSTGSPPGNTQQPLPGLPLASPPGVPPVSLHTQVQSVVPQQLLTVTAAPTAAPVTTTVTSQIQQVPVLLQPHFIKADSLLLTAMKTDGATVKAAGLSPLVSGTTVQTGPLPTLVSGGTILATVPLVVDAEKLPINRLAAGSKAPASAQSRGEKRTAHNAIEKRYRSSINDKIIELKDLVVGTEAKLNKSAVLRKAIDYIRFLQHSNQKLKQENLSLRTAVHKSKSLKDLVSACGSGGNTDVLMEGVKTEVEDTLTPPPSDAGSPFQSSPLSLGSRGSGSGGSGSDSEPDSPVFEDSKAKPEQRPSLHSRGMLDRSRLALCTLVFLCLSCNPLASLLGARGLPSPSDTTSVYHSPGRNVLGTESRDGPGWAQWLLPPVVWLLNGLLVLVSLVLLFVYGEPVTRPHSGPAVYFWRHRKQADLDLARGDFAQAAQQLWLALRALGRPLPTSHLDLACSLLWNLIRHLLQRLWVGRWLAGRAGGLQQDCALRVDASASARDAALVYHKLHQLHTMGKHTGGHLTATNLALSALNLAECAGDAVSVATLAEIYVAAALRVKTSLPRALHFLTRFFLSSARQACLAQSGSVPPAMQWLCHPVGHRFFVDGDWSVLSTPWESLYSLAGNPVDPLAQVTQLFREHLLERALNCVTQPNPSPGSADGDKEFSDALGYLQLLNSCSDAAGAPAYSFSISSSMATTTGVDPVAKWWASLTAVVIHWLRRDEEAAERLCPLVEHLPRVLQESERPLPRAALHSFKAARALLGCAKAESGPASLTICEKASGYLQDSLATTPASSSIDKAVQLFLCDLLLVVRTSLWRQQQPPAPAPAAQGTSSRPQASALELRGFQRDLSSLRRLAQSFRPAMRRLMDVLTSESAWALPQHLGKGFPSPSGHKVPGWHGRMD
binding: binds

No constants are given. Whether binding was seen depends on the method and setting. Binding seen in cells or lysates may run through a third protein. These calls come from enrichment with a bait or labelling near it, and not all partners need be listed.
